Taken from: PubChem BioAssay AID1508597 (Cure First, 2020)

Purpose: 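Knock-downs altering ovarian cancer cell survival with or without PARP inhibitor rucaparib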 (primary screen)
Cells: human ovarian carcinoma lines grown from tumours: OCI-P5x (papillary serous) and OCI-C5x (clear cell)
Reagent: siRNA pool against human genes, 1.25 pmol siRNA per well
Timing: 72 h or 96 h, depending on the cell culture
Treatment: rucaparib 20 µM (about IC30) or vehicle, present until read-out
Read-out: 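Luminescent ATP-based viability assay read 72 or 96 h after transfection, depending on culture, given as normalised percent viability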
Direction: viability, normalised: higher = more viable cells remaining
Hit rule: 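a well counts as a hit if its normalised viability is under 80 percent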
Calls: active = viability under 80%; inactive = viability 80% or more
In all, the deposit lists about 2,100 reagents; shown is a random part of them. 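Calls flag viability under 80% in either arm, not effects specific to rucaparib; the reference for percent is not stated.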 The record does not give: the 100% reference.

The opening 2 records, ahead of the listing:
target gene | rucaparib or vehicle | cell line | technical replicate | viability, normalised (%) | activity call
TRMT112 (GeneID 51504) | Rucaparib | OCI-C5x (clear cell) | 1 | 83.4 | inactive
TRMT112 (GeneID 51504) | Rucaparib | OCI-C5x (clear cell) | 2 | 45.1 | active

Main list, from the first entry:
target gene | rucaparib or vehicle | cell line | technical replicate | viability, normalised (%) | activity call
TRMT112 (GeneID 51504) | Rucaparib | OCI-C5x (clear cell) | 1 | 83.4 | inactive
TRMT112 (GeneID 51504) | Rucaparib | OCI-C5x (clear cell) | 2 | 45.1 | active
TRMT112 (GeneID 51504) | Rucaparib | OCI-C5x (clear cell) | 3 | 50.2 | active
TRMT112 (GeneID 51504) | Rucaparib | OCI-P5x (serous) | 1 | 64.8 | active
TRMT112 (GeneID 51504) | Rucaparib | OCI-P5x (serous) | 2 | 67.7 | active
TRMT112 (GeneID 51504) | Rucaparib | OCI-P5x (serous) | 3 | 69 | active
TRMT112 (GeneID 51504) | Vehicle | OCI-C5x (clear cell) | 1 | 68.6 | active
TRMT112 (GeneID 51504) | Vehicle | OCI-C5x (clear cell) | 2 | 72.1 | active
TRMT112 (GeneID 51504) | Vehicle | OCI-C5x (clear cell) | 3 | 80.6 | inactive
TRMT112 (GeneID 51504) | Vehicle | OCI-P5x (serous) | 1 | 50.7 | active
TRMT112 (GeneID 51504) | Vehicle | OCI-P5x (serous) | 2 | 72.3 | active
TRMT112 (GeneID 51504) | Vehicle | OCI-P5x (serous) | 3 | 70.4 | active
DEAF1 (GeneID 10522) | Rucaparib | OCI-C5x (clear cell) | 1 | 54.1 | active
DEAF1 (GeneID 10522) | Rucaparib | OCI-C5x (clear cell) | 2 | 41.3 | active
DEAF1 (GeneID 10522) | Rucaparib | OCI-C5x (clear cell) | 3 | 48.7 | active
DEAF1 (GeneID 10522) | Rucaparib | OCI-P5x (serous) | 1 | 72.6 | active
DEAF1 (GeneID 10522) | Rucaparib | OCI-P5x (serous) | 2 | 77.2 | active
DEAF1 (GeneID 10522) | Rucaparib | OCI-P5x (serous) | 3 | 63.9 | active
DEAF1 (GeneID 10522) | Vehicle | OCI-C5x (clear cell) | 1 | 52.6 | active
DEAF1 (GeneID 10522) | Vehicle | OCI-C5x (clear cell) | 2 | 41.9 | active
DEAF1 (GeneID 10522) | Vehicle | OCI-C5x (clear cell) | 3 | 42.4 | active
DEAF1 (GeneID 10522) | Vehicle | OCI-P5x (serous) | 1 | 58.3 | active
DEAF1 (GeneID 10522) | Vehicle | OCI-P5x (serous) | 2 | 74.2 | active
DEAF1 (GeneID 10522) | Vehicle | OCI-P5x (serous) | 3 | 62.5 | active
